Data taken from publication PMC7862700.
The list shows a part of the results, in another mix than the full data. At the low end of the ranking, values are background and their order means little.

How the values were obtained:
[1] = target: T1, FEV (UniProt Q99581); experiment: DAPPL (digital affinity profiling via proximity ligation, sequencing); conditions: 10 mM Tris-HCl pH 7.5, 50 mM NaCl, 1 mM DTT, 4% glycerol, room temperature, 30 min; GST-TFs on glutathione beads, 16-mer random dsDNA library, 0.1% …; high values mean tight binding; double strand, one strand shown; scale: fold enrichment (6-mer frequency, TF over GST control)
T1 sequence: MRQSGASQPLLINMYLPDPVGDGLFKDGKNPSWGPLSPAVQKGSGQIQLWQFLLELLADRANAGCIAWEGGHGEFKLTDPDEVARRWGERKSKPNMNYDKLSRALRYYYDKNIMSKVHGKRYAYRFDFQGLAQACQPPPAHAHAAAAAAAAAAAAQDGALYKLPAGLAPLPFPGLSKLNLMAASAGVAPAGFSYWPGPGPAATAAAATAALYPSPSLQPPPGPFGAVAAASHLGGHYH

[2] = target: T2, ELF5 (UniProt Q9UKW6-2); experiment: as above; conditions: 10 mM Tris-HCl pH 7.5, 50 mM NaCl, 1 mM DTT, 4% glycerol, room temperature, 30 min; GST-TFs on glutathione beads, 16-mer random dsDNA library, 0.1% …; high values mean tight binding; double strand, one strand shown; scale: fold enrichment (6-mer frequency, TF over GST control)
T2 sequence: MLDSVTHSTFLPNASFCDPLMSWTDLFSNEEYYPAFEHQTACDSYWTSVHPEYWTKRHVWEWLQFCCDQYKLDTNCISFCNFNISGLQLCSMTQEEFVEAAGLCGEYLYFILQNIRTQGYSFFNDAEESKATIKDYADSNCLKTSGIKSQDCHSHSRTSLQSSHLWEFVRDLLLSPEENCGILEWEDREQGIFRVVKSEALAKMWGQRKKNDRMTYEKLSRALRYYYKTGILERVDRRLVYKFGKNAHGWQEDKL

Sequence	binding signal [1]	binding signal [2]
CTATTA	0.997	1.1
TTTACC	1.32	1.2
TCATCA	1.12	1.16
TTTTAT	1.32	1.3
CATAAG	0.877	0.904
GGATAA	0.743	0.896
ATCGCA	1.01	0.975
CTCCCC	1.4	1.33
ATTGAG	0.965	0.935
AGGGAT	0.782	0.873
GGATTA	0.831	0.842
TGTGAT	0.958	0.95
GCGGCT	0.954	0.941
GGATTC	0.923	0.909
AAGCCC	1.06	1.02
TAAACT	1.11	1.16
ACTGAT	1.19	1.22
GACTAT	0.896	0.868
TTAGTG	0.832	0.793
AGAGCT	0.879	0.938
TGGATT	0.951	0.975

An excerpt of these results, in CSV form.
Sequence,binding signal [1],binding signal [2]
TCATCA,1.12,1.16
TTTTAT,1.32,1.3

(cont.)

Sequence	binding signal [1]	binding signal [2]
GGGATT	0.83	0.852
CAAGAA	0.991	1.08
TAAGAG	0.829	0.886
TAGTAG	0.963	0.976
TCCAAA	1.18	1.15
TAGTTG	0.908	0.931
TAACTA	1.25	1.3
TCCAGC	0.98	0.942
AGGCTA	0.939	0.901
TAGCGC	0.945	0.834
GTAGAT	0.878	0.892
AGCTGA	0.965	0.983
TTCAGA	0.933	0.935
GATTCG	0.965	0.931
TGGATC	0.931	0.927
CCTCTG	1.48	1.5
TTCTGA	1.22	1.26
CCTTTG	1.31	1.31
TTAGAT	1.01	0.988
AACTGG	1.12	1.26
